Consider 2 molecules from US20190359704A1.

Amino acid sequences for entries named in this document (tags omitted). A change or cut given only in a name is not applied to a line headed by its entry.
UniProt P08887: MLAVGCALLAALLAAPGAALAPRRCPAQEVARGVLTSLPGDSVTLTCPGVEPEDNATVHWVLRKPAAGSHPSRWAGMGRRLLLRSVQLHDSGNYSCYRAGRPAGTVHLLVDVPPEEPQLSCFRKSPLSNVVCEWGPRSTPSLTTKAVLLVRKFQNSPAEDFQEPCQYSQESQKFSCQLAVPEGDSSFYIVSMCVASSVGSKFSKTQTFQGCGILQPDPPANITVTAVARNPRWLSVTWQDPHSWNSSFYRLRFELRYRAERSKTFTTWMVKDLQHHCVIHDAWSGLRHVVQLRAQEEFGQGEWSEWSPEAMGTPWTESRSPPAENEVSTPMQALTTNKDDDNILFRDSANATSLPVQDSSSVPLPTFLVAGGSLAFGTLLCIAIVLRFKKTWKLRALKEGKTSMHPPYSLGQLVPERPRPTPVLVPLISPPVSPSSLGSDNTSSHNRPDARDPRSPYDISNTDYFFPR

For test [1], the target named is human IL-6 receptor (soluble hIL-6R) (human) (UniProt P08887). Nature of the test: phage ELISA (Fab displayed on phage), biotin-labeled human IL-6 receptor on streptavidin plate, absorbance 450 nm; binding in the absence of ATP and adenosine, reduced by 10 mM ATP and adenosine. On the technique in general: ELISA stands for enzyme-linked immunosorbent assay.
The target is the same in test [2]. Nature of the test: phage ELISA (Fab on phage) on biotin-labeled antigen, without ATP and adenosine (compared with 10 mM).

Residue numbers refer to the chain shown, from its start. No constants are given. Whether binding was seen depends on the method and setting. Some results given as binding are weak or reduced against the parent protein; the word gives no strength.

B1: 6RRLSA1-6_045 (Fab, V domains shown)
VH: EVQLVESGGDLVKPGGGLRLSCAASGFTFSGYTMHWVRQAPGKGLEWVSSISSRSNHRSYADSVKGRFTISRDNAKNSLYLQMNSLRAEDTAVYYCARFGKRFDRNWVFDYWGQGTLVTVSS
VL: QSALTQPPSASGSPGQTVTISCTGTSTDVGTYNYVSWYQQHPGKAPKLMIYKTSKRPSGVPDRFSGSKSGNTASLTVSGLQAEDEADYFCSSRRYRRSLSFGGGTKLTVL
With B1, the binding entry in test [1] and in test [2] was “binds” throughout.

B2: 6RRLSA1-6_037 (Fab, V domains shown)
VH: B1 VH with G31T, N56G, S59H, F99Y, R102K, F103G, D104N
VL: B1 VL with T31G, K52S, S92T, R93T, R94T, R96A, R97K, S98N, L99P, S100V
For the molecule B2, the binding result in test [1] and in test [2] was “binds” throughout.
